Laboratory results reported in patent EP1171107B1, “USE OF A PHARMACEUTICAL COMPOSITION IN THE MANUFACTURE OF A MEDICAMENT FOR THE TREATMENT OF PATHOLOGICAL CONDITIONS OF THE EYE CAUSED BY BACTERIA, VIRUSES, FUNGI, YEASTS AND PROTOZOA” (Dr. GERHARD MANN chem.-pharm. Fabrik GmbH, priority 1999, dated 2000).
Where a name gives a salt, the structure may show the parent alone.

Tested on: Alle Testkeime
Test: Overall assessment: time until all test germs are eliminated (count and enrichment)
Assay type: cell-based
Conditions: time after inoculation; all six test germs

## O=C(O)c1cn(C2CC2)c2cc(N3CCNCC3)c(F)cc2c1=O [Ciprofloxacin HCl 0,35 Gew.-%, Ciprofloxacin HCl, reference compound]
  Testkeime nach Inokulation der Zubereitung auch qualitativ nicht mehr nachweisbar: 24 Stunden
